From patent publication US20240301049A1
These are yes or no findings as the source states them, for the method shown.

Target: OX40L (human)
Test: SPR (Biacore 8K+): F027201062 captured on immobilized HSA, analyte injected for 2 min

binding: no binding (tested: 100 nM)
B1: F027201062 (bispecific antibody)
chain: DVQLVESGGGVVQPGGSLRLSCAASGRTFSNYAMAWFRQAPGKEREFVAVISYAGGRTYYADSVKGRFTISRDNAKNTVYLQMNSLRPEDTALYYCAAVDSPLIATHPRGYDYWGQGTLVTVSSGGGGSGGGSEVQLVESGGGVVQPGGSLRLSCAASGFTFRSFGMSWVRQAPGKGPEWVSSISGSGSDTLYADSVKGRFTISRDNSKNTLYLQMNSLRPEDTALYYCTIGGSLSRSSQGTLVTVSSGGGGSGGGSEVQLVESGGGVVQPGGSLRLSCAASGFTLAYYAIGWFRQAPGKEREGVSCISGSVGTTYYADSVKGRFTISRDNAKNTVYLQMNSLRPEDTALYYCVRSSWFDCGVQGRDLGNEYDYRGQGTLVTVSSGGGGSGGGSEVQLVESGGGVVQPGGSLRLSCTASGFTFSTADMGWFRQAPGKGREFVARISGIDGTTYYDEPVKGRFTISRDNSKNTVYLQMNSLRPEDTALYYCRSPRYADQWSAYDYWGQGTLVKVSSA
